We go through 44 molecules from the supplement of paper PMC11237882.

The list shows a part of the results. Values are worked out from sequencing counts and are noisy.

In this test the target is T1, Homer1 EVH1 domain.
T1 chain: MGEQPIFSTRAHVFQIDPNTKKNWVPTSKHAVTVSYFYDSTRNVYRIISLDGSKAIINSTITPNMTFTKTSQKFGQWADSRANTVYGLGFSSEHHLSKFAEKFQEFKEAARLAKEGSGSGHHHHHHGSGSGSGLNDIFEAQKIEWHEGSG
Kind of test: enrichment score (AUC of log2 frequency ratio across FACS sorting rounds) (log2 AUC); higher = stronger enrichment for Homer1 EVH1 binding.
For VIMGVGTLLIAMPQFFMEQYKYERYSPSSNSTLSIS, the enrichment score stood at 2.17.
To ALLADSQPPNRRALAVYPVFLFYFVISWMILTFTPQ belongs 4.31; to GEDWIFLVLLGLLMALVSWVMDYAIAACLQAQQWMS, 2.71; to TLTTIGFGDTVLEHPNFFLFFSIYIIVGMEIVFIAF, 0.972.
For MTTFIPIIFSSVVVVLFVIGNFANGFIALVNSIERA, the enrichment score was 2.56.
To RTQNQVLFFFAAIIFTVSVALHLFSIDEEQYSPQQD belongs 2.03; to KANKALWLSIAFIVLFAALMSFLTGQLFQKSVDAAP, -2.22; to KKDLYGTLSPTTPFCWIKDDSIFYISVVAYFCLIFL, 0.84.
Take KKTLQSTLLLLLLVPLIKPAPPTQQDSRIIYDYGTD: the enrichment score was 4.59.
As for PYREEDIPAPLNLYGKTKLDGEKAVLENNLGAAVLR, the enrichment score was -2.23.
To MGTLLGLGAVLAYQDHRCRAAQESTHIYTKEEVSSH belongs 1.89.
For MANPGLGLLLALGLPFLLARWGRAWGQIQTTSANEN the value was 4.38.
Regarding KITNRLTIQRKSQFMQRLHSYWTLKRQSRNGVTLLC, the enrichment score came out at 3.71.
For QRVLPLKKPPMKSLRKKGSGKILTPAKKSFLRRLFD the value was 2.99.
To ILLLLPIFLISTSYVFILQSVIQMRSSGSKRNAFAT belongs -1.11.
For ISTSVHHVLIWIHCFTVYLVPCSIFFILNSIIVYKP the value was -0.0294.
Turning to PWVNHYSIFFVSVSFFIITAATVGYFIFYSARRLRN, the enrichment score was determined as 1.35.
For the molecule SETAAADAALGYIIAFLVLLSTVKLWHLLRLNPKMN, the enrichment score was 4.99.
Consider VVTLRLPGLESVDHYPILVAVTGILVQLLVRGPASE, for which the enrichment score came to 1.36.
As for SHKPDATGGRGLSRLEVAALVLGCLIPLILSVGHQH, the enrichment score turned out to be 4.17.
For the molecule MTSKFLLVSFILAALRLSTTFSLQPDQQKVLLVSFD, the enrichment score stood at 2.68.
To MKNILGHAFYQLVVVFTLLFAGEKFFDIDSGRNAPL belongs 0.868; to MNSLSWGAANAVLLLLLLAWASPTFISINRGVRVMK, 3.11.
For QLIMDVKALTRVLFLYIPLPMFWALLDQQGSRWTLQ, the enrichment score turned out to be 1.47.
For MAAPVRRTLLGVAGGWRRFERLWAGSLSSRSLALAD the value was 2.47.
For MLNLLLLALPVLASRAYAAPAPGQALQRVGIVGGQE the value was -2.05.
To MPNFTDVTEFTLLGLTCRQELQVLFFVVFLAVYMIT belongs 2.54; to LLVAGALTALLPSVKKDKMLMLRREIKSQGKSTMDS, -1.88; to GVEQLEDYLNFANYLLWVFTPLILLILPYFTIFLLY, 1.91.
As for QAPSASHSSSLRPSQRRPRRPPTVFRLLEGRGPQTP, the enrichment score is -1.29.
Take SGLCRSVLTALLSGGLALLGALIWLCHFWCCSERWS: the enrichment score was determined as 2.47.
MAKAFSTLASHIAVVILFFGPCIFIYVWPFTISPLD: the enrichment score is -2.68.
Consider PPLSSSPGGTSPSPPPRTPAIPFAPYGLHHTSLLKP, for which the enrichment score came out at 0.135.
For TGVQLLAVSHVGIKLLRYGQGWPGGRRAAAGPACIQ the value was 3.52.
For the molecule HYSDPFILFLFLLAFSTATIMLCFLLSTFFSKASLA, the enrichment score was 0.63.
To MTHKSLVYLWFLCSSVALALGALTVWHAVLISRSET belongs 4.7; to GYTSLGIFLLGFLFWNIDNIFCESLRNFRKKVPPII, -0.695; to MRKSPGLSDCLWAWILLLSTLTGRSYGQPSLQDELK, 0.0916.
Turning to FRGPDWLCRVVKHLQVFGMFASAYMLVVMTADRYIA, the enrichment score worked out at 2.49.
To TYLCCILMLLTPIMVISSSYTLILHLIHRMNSAAGR belongs 4.53; to MPWILMLLLTMGQGVVILALSIVLWRQRVRGAPGRD, 3.49.
QLNELLLFAVGFIMAGTPLVLIITAYSHVAAAVLRI: the enrichment score was found to be 2.13.
For LNWIQWASLLTLFLSIVALTAGTKTLQHNLAGRGFH the value was 1.21; for SNPYQTFLGPTGVYTWNGLGASFVFVTMILFVANTQ, 1.9.
